# Laboratory results taken from PubChem BioAssay AID977628 (Broad Institute, 2014).
# In all, about 1,900 compounds went through this assay and fewer than 10 were called active. The shares of active, inactive and inconclusive entries below differ from those in the screen.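 The calls were made as follows: active = compound lowering the normal-ribosome reporter at least twice as much as the humanized-ribosome reporter, growth loss under a set limit; inconclusive = no clear call, values can overlap the other calls; inactive = the rest.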
# Assay: growth of wild-type and h24-humanized E. coli strains – h24 mutant RFP vs wild-type GFP, cherry-pick, dose response (AID 977628)
# Details: E. coli WT GFP strain growth, fluorescence, 24 h; at 50 µM (top of the series) unless noted
row,SMILES,"activity change, negative = inhibition"
1,CCc1ccc(CN2CCCC(CNS(=O)(=O)c3ccc(OC)cc3)C2)cc1 (stereo unspecified),inconclusive: 1.35
2,Nc1ncncc1-c1ccc2ccccc2c1,inconclusive: -21
3,COc1ccc(N2C(=O)C3C(c4ccc(C(=O)O)cc4)NC(Cc4ccccc4)(C(=O)O)C3C2=O)c([N+](=O)[O-])c1 (stereo unspecified),inactive: 3.85
4,NS(=O)(=O)c1ccc(NC(=O)CCC(=O)O)cc1,inconclusive: 6.56
5,O=S(=O)(Cc1ccccc1)N1CCCCN2[C@@H](CO)[C@@H](c3ccc(-c4cccnc4)cc3)[C@@H]2C1,inconclusive: -0.991
6,C[C@@H]1CN([C@@H](C)CO)C(=O)c2cc(NC(=O)Nc3cccc4ccccc34)ccc2O[C@@H](C)CCCCO[C@H]1CN(C)C(=O)CCCN(C)C,inconclusive: -2.34
7,C[C@@H]1CCCCO[C@@H](CN(C)C(=O)CCCN(C)C)[C@H](C)CN([C@H](C)CO)C(=O)c2cc(NC(=O)Nc3cccc4ccccc34)ccc2O1,inconclusive: -9.49
8,COc1ccc(-c2nc3c(C)cc(Br)cn3c2Cc2ccc(C)cc2)cc1OC,inconclusive: -10.9
9,C[C@H](CO)N1C[C@H](C)[C@H](CN(C)C(=O)Nc2ccc(F)cc2)Oc2c(NC(=O)Nc3ccccc3)cccc2C1=O,inconclusive: 8.54
10,Cc1nn2c(NCc3ccccn3)cc(C(C)C)nc2c1-c1ccccc1,inactive: -14.3
11,Cn1c(=O)n(C)c2cc([N+](=O)[O-])c(N3CCN(C(=O)c4cccc(F)c4)CC3)cc21,inconclusive: -14.7
12,O=C(Nc1ccc(Nc2ccccc2)cc1)c1ccc(F)cc1,inactive: -13.3
13,COC(=O)c1cc2ccccc2n1S(=O)(=O)c1ccccc1,inactive: -10.4
14,CCCC[n+]1ccn(-c2nc3ccccc3nc2[N-]S(=O)(=O)c2cccs2)c1,inactive: -8.38
15,CC(C)[C@@H]1CC[C@@H](C)C[C@H]1O,inconclusive: 8.89
16,Cc1ccc(NS(=O)(=O)c2ccc3c(c2)CCC(=O)N3)cc1C,inconclusive: -19
17,CCOc1ccc(CN(C)C(=O)c2ccc(NS(=O)(=O)c3ccc4[nH]c(=O)[nH]c4c3)cc2)cc1,inconclusive: -16.8
18,CCn1ccnc1CN1CCCC(C(=O)c2ccc3cc(OC)ccc3c2)C1 (stereo unspecified),inactive: -3.33
19,O=C(c1ccc(-n2cccn2)cc1)N1CCc2ccccc2C1,inconclusive: -10
20,C=CCn1c(SCC(=O)N2CCCC2=O)nc2sc(CC)cc2c1=O,inconclusive: -7.65
21,Cc1ccc(C)c(NC(=O)CSc2nc3nc(-c4cccs4)cc(C(F)(F)F)c3c(=O)[nH]2)c1,inconclusive: -55.4

row,SMILES,"activity change, negative = inhibition"
1,Cc1noc(C)c1NC(=O)Nc1ccc2c(c1)C(=O)N([C@H](C)CO)C[C@H](C)[C@@H](CN(C)C(=O)Nc1ccc3c(c1)OCO3)OCCCC[C@@H](C)O2,inconclusive: -24.2 [at 46 µM]
2,CC(C)CN(C(=O)c1ccco1)c1nc2ccccc2s1,inconclusive: -40.7
3,O=C(COC(=O)Cc1ccccc1F)Nc1ccc(Cl)cn1,inconclusive: -18
4,CCC(C(=O)Nc1ccsc1C(=O)OC)c1ccccc1 (stereo unspecified),inactive: -5.66
5,CCCCNC(=O)c1c(N)[nH]c(C(=O)c2ccccc2)c1-c1ccccn1,inactive: -15.3
6,CCc1nnc(NC(=O)CSc2ncc(-c3ccccc3)[nH]2)s1,inactive: -0.476
7,O=C(OCC(=O)N1CCOCC1)c1cccc(S(=O)(=O)N2CCCc3ccccc32)c1,inconclusive: -13.1
8,Cc1cccc(-c2ccc([C@@H]3[C@@H](CO)N4CCCCN(S(=O)(=O)c5ccccc5C)C[C@H]34)cc2)c1,inactive: -4.32
9,Clc1ccccc1C1CC(c2ccccc2)=Nc2ccccc2N1 (stereo unspecified),inconclusive: -8.54
10,Cc1ccc(-c2cc[n+](Cc3ccccc3)cc2)cc1,inconclusive: -15.8
11,Cc1noc(C)c1NC(=O)Nc1ccc2c(c1)C(=O)N([C@H](C)CO)C[C@H](C)[C@@H](CN(C)C(=O)Nc1ccc3c(c1)OCO3)OCCCC[C@H](C)O2,inconclusive: 12.3
12,Cc1ccc(-c2cc(-c3ccc(C)cc3)[n+](-c3ccc(C(=O)[O-])cc3)c(-c3ccc(C)cc3)c2)cc1,inconclusive: -4.57
13,CC(=O)Nc1ccc(NS(=O)(=O)c2ccc(Cl)s2)cc1,inconclusive: -7.45
14,CCN(CC)CCNC(=O)c1cc2cc3ccc(OC)cc3nc2o1,inconclusive: -13.2
15,O=C(Nc1ccc(C(F)(F)F)cc1)C1CCN(c2cnccn2)CC1,inactive: -2.58
16,CCn1nc(C)c(Br)c1-c1nc(CS(=O)(=O)c2ccsc2)no1,inconclusive: -9.53
17,COc1ccc(CN2CCC3CC2c2cc(Cl)ccc23)cc1 (stereo unspecified),inconclusive: -13.8
18,Cc1cc(NCc2ccccn2)n2nc(C)c(-c3ccccc3)c2n1,inconclusive: -20.3
19,C=CCN(CC=C)CC(O)Cn1c2ccccc2c2ccccc21 (stereo unspecified),inconclusive: -8.48
20,CC(C)(C)c1ccc(C(CC(=O)O)NC(=O)Cc2ccc(Cl)cc2)cc1 (stereo unspecified),inconclusive: -11.4
21,Cc1cccc(-c2ccc([C@H]3[C@H]4CN(S(=O)(=O)c5ccccc5C)CCCCN4[C@H]3CO)cc2)c1,inconclusive: -2.25

# Shown bar-delimited: 16 of the compounds above.
row | SMILES | activity change, negative = inhibition
3 | COc1ccc(N2C(=O)C3C(c4ccc(C(=O)O)cc4)NC(Cc4ccccc4)(C(=O)O)C3C2=O)c([N+](=O)[O-])c1 (stereo unspecified) | inactive: 3.85
5 | O=S(=O)(Cc1ccccc1)N1CCCCN2[C@@H](CO)[C@@H](c3ccc(-c4cccnc4)cc3)[C@@H]2C1 | inconclusive: -0.991
8 | COc1ccc(-c2nc3c(C)cc(Br)cn3c2Cc2ccc(C)cc2)cc1OC | inconclusive: -10.9
9 | C[C@H](CO)N1C[C@H](C)[C@H](CN(C)C(=O)Nc2ccc(F)cc2)Oc2c(NC(=O)Nc3ccccc3)cccc2C1=O | inconclusive: 8.54
10 | Cc1nn2c(NCc3ccccn3)cc(C(C)C)nc2c1-c1ccccc1 | inactive: -14.3
12 | O=C(Nc1ccc(Nc2ccccc2)cc1)c1ccc(F)cc1 | inactive: -13.3
13 | COC(=O)c1cc2ccccc2n1S(=O)(=O)c1ccccc1 | inactive: -10.4
14 | CCCC[n+]1ccn(-c2nc3ccccc3nc2[N-]S(=O)(=O)c2cccs2)c1 | inactive: -8.38
18 | CCn1ccnc1CN1CCCC(C(=O)c2ccc3cc(OC)ccc3c2)C1 (stereo unspecified) | inactive: -3.33
21 | Cc1ccc(C)c(NC(=O)CSc2nc3nc(-c4cccs4)cc(C(F)(F)F)c3c(=O)[nH]2)c1 | inconclusive: -55.4
5 | CCCCNC(=O)c1c(N)[nH]c(C(=O)c2ccccc2)c1-c1ccccn1 | inactive: -15.3
11 | Cc1noc(C)c1NC(=O)Nc1ccc2c(c1)C(=O)N([C@H](C)CO)C[C@H](C)[C@@H](CN(C)C(=O)Nc1ccc3c(c1)OCO3)OCCCC[C@H](C)O2 | inconclusive: 12.3
13 | CC(=O)Nc1ccc(NS(=O)(=O)c2ccc(Cl)s2)cc1 | inconclusive: -7.45
14 | CCN(CC)CCNC(=O)c1cc2cc3ccc(OC)cc3nc2o1 | inconclusive: -13.2
18 | Cc1cc(NCc2ccccn2)n2nc(C)c(-c3ccccc3)c2n1 | inconclusive: -20.3
20 | CC(C)(C)c1ccc(C(CC(=O)O)NC(=O)Cc2ccc(Cl)cc2)cc1 (stereo unspecified) | inconclusive: -11.4

# (further entries)

row,SMILES,"activity change, negative = inhibition"
1,S=c1nc(-c2cc(Cl)cc(Cl)c2)[nH][nH]1,inconclusive: -43.8
2,COC(=O)c1cc(C)sc1NC(=O)CC1Nc2ccccc2NC1=O (stereo unspecified),inconclusive: -3.36
3,Nc1cc([N+](=O)[O-])ccc1Nc1ccc(O)cc1,inconclusive: -34.7
4,COC(=O)[C@]1(Sc2ccc(C)cc2)CC(=O)N[C@@H]1c1ccccc1,inconclusive: -13.4
5,Cc1ccc(S(=O)(=O)Nc2ccc3c(c2)C(=O)N([C@@H](C)CO)C[C@@H](C)[C@H](CN(C)C(=O)c2ccccc2)OCCCC[C@@H](C)O3)cc1,inactive: 1.2
6,CNC(=O)C[C@H]1CC[C@@H]2[C@@H](COc3ccc(NC(=O)Nc4ccc(F)c(F)c4)cc3C(=O)N2C)O1,inconclusive: -15.2
7,O=C(Nc1ccccc1F)N1C[C@@H]2[C@H](c3ccccc31)[C@@H](CO)N2C(=O)Cc1ccccc1,inconclusive: -81.8
8,CN1CCN(C(=O)C[C@H]2CC[C@H]3[C@@H](COC[C@@H](O)CN3C(=O)Nc3ccc(Cl)cc3)O2)CC1,inconclusive: -58.9
9,c1ccc(CNc2ncnc3sccc23)cc1,inconclusive: -30
10,Cc1cc(C)nc(SCc2cn3c(C)cccc3n2)n1,inconclusive: -28.8
11,CO[C@@H]1CN(C)C(=O)c2ccc(NC(=O)c3nc4ccccc4s3)cc2OC[C@@H](C)N(Cc2ccncc2)C[C@@H]1C,inconclusive: 0.187
12,COc1cccc(SCC(=O)N2CCN(c3ccccc3)CC2)c1,inconclusive: -13.5
13,O=S(=O)(Cc1ccc(Cl)cc1)N1CCN(Cc2ccc3c(c2)OCO3)CC1,inconclusive: -2.68
14,O=C(Cc1ccc(Br)cc1)Nc1cccc(-c2cn3c(n2)SCC3)c1,inactive: -11.9
15,CCCN1C(=O)C(O)(c2c(C)[nH]c3ccccc23)c2ccccc21 (stereo unspecified),inactive: -5.56
16,Cc1ccc(C2NC(c3ccc(C)cc3)C(C)C(=O)C2C)cc1 (stereo unspecified),inactive: -5.21
17,O=C(COC(=O)CNC(=O)c1ccc(F)cc1)Nc1cccc(S(=O)(=O)N2CCCC2)c1,inactive: -3.88
18,Cc1ccc(-n2c(SCC(N)=O)nnc2-c2cnccn2)cc1,inconclusive: -5.49
19,CCCCCCC(=O)N1CCCC(c2nc(-c3cccc(OC)c3)no2)C1 (stereo unspecified),inconclusive: -14
20,Nc1ccccc1Sc1c[nH]c2ccccc12,inactive: -11.4
21,Cc1ccc2sc(N(CCCN(C)C)C(=O)c3ccc(S(=O)(=O)N4CCc5ccccc5C4)cc3)nc2c1C,inactive: -1.31

row,SMILES,"activity change, negative = inhibition"
1,COCc1c(C#N)c(NCCc2ccc(F)cc2)nc(C)c1[N+](=O)[O-],inactive: -11.8
2,CCN(CC(=O)Nc1cccc(S(=O)(=O)N2CCCC2)c1)CC(=O)Nc1ccccc1OC,inactive: -17.3
3,Cc1ccc(NC(=O)C[n+]2cc(-c3ccccc3)n3c2CCC3)cc1,inconclusive: 4.79
4,Cc1cc(-c2ccc(C)c(S(=O)(=O)NC(C)Cc3ccco3)c2)on1 (stereo unspecified),inconclusive: -23.6
5,CN(c1cccc(NC(=O)c2ccc(CN3CCc4ccccc4C3)cc2)c1)S(C)(=O)=O,inconclusive: -28.9
6,Cc1cc(Cl)ccc1OCCCC(=O)OCC(N)=O,inconclusive: -11.9
7,CC(=O)Nc1cccc(NC(=O)CCN2C(=O)c3ccccc3S2(=O)=O)c1,inactive: -13.1
8,Cc1ccc2oc(=O)n(CC(=O)OCCC(C)C)c2c1,inactive: -2.49
9,Cc1ccc2nc(SCC(=O)c3ccc4c(c3)NC(=O)CO4)[nH]c2c1,inconclusive: -5.89
10,O=C(CN1CCc2ccccc2C1)Nc1ccc(F)cc1F,inconclusive: -20.7
11,CCOC(=O)C(C)Sc1nc(N2CCOCC2)c2c(c1C#N)CC(C)(C)OC2 (stereo unspecified),inactive: -10.3
12,CC(C)CN1C(=O)c2ccc(C(=O)Nc3ccncc3)cc2C1=O,inactive: -9.15
13,COc1ccc(CC(=O)NC(C)c2ccc3ccccc3c2)cc1 (stereo unspecified),inconclusive: -30.7
14,C=C(C)Cn1c(SCC(=O)O)nc2c1c(=O)[nH]c(=O)n2C,inconclusive: -11.6
15,CC1(C)CC2CC(C)(CN2c2ncnc3ccccc23)C1 (stereo unspecified),inconclusive: -14.9
16,COc1ccccc1C(C(C(=O)c1ccccc1)N1CCOCC1)N1CCOCC1 (stereo unspecified),inconclusive: -1.75
17,Cc1ccc(CC2C(=O)N(c3cc(Cl)ccn3)C(=O)C2C)cc1 (stereo unspecified),inconclusive: -45
18,CCN(c1ccccc1)S(=O)(=O)c1cccc(C(=O)NCC(c2cccs2)N(C)C)c1 (stereo unspecified),inconclusive: -1.45
